PubChem BioAssay AID1259405 – NCATS – 2018
Here is one part, drawn at random, of about 50,000 reagents. In the full data, about 4,000 (8%) are marked active. 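Mouse siRNA library applied to hamster cells; one well for each siRNA.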 The numbers tell different reagents against one gene apart.

- Test: 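Knock-downs that lift recombinant protein yield in hamster ovary cells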 (primary screen)
- Cell system: Chinese hamster CHO-K1 ovary cells with stable secreted eGFP expression
- Reagent: single siRNA against mouse genes, 0.8 pmol siRNA per well (2 µl of 400 nM stock)
- Timing: 3 days
- Measured: 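Per-well intracellular GFP measured by laser scanning cytometry, plus viability from ATP luminescence, each relative to plate median of non-targeting control wells, in %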
- Reading the numbers: GFP, % of control: higher = more GFP per well, higher productivity; viability (ATP), % of control: higher = more viable cells (more ATP)
- Rule for the call: 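a knock-down is called active if GFP reaches 120% or more of non-targeting control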

no.	gene symbol	siRNA no.	GFP, % of control	viability (ATP), % of control	activity call
1	Eddm3b (epididymal protein 3B)	1	64.4	79.9	inactive
2	Eddm3b (epididymal protein 3B)	2	167	95.3	active
3	Eddm3b (epididymal protein 3B)	3	177	220	active
4	Klrb1c (killer cell lectin-like receptor subfamily B member 1C)	1	71.5	86.3	inactive
5	Klrb1c (killer cell lectin-like receptor subfamily B member 1C)	2	63.1	87.2	inactive
6	Klrb1c (killer cell lectin-like receptor subfamily B member 1C)	3	67.4	67.6	inactive
7	Actb (actin, beta)	1	61.9	85.4	inactive
8	Actb (actin, beta)	2	95.5	96	inactive
9	Ubfd1 (ubiquitin family domain containing 1)	1	66.7	66.7	inactive
10	Ubfd1 (ubiquitin family domain containing 1)	2	105	58.6	inactive
11	Ubfd1 (ubiquitin family domain containing 1)	3	82.2	86.5	inactive
12	Drc3 (dynein regulatory complex subunit 3)	1	68.8	81.5	inactive
13	Drc3 (dynein regulatory complex subunit 3)	2	73.8	55.6	inactive
14	Drc3 (dynein regulatory complex subunit 3)	3	102	99.4	inactive
15	Ddx56 (DEAD box helicase 56)	1	70.9	55.4	inactive
16	Ddx56 (DEAD box helicase 56)	2	61.6	40	inactive
17	Ddx56 (DEAD box helicase 56)	3	71.6	64.7	inactive
18	Sox13 (SRY (sex determining region Y)-box 13)	1	50.4	65.3	inactive
19	Sox13 (SRY (sex determining region Y)-box 13)	2	20.9	30.5	inactive
20	Sox13 (SRY (sex determining region Y)-box 13)	3	79.8	91.3	inactive
21	Ctsh (cathepsin H)	1	102	112	inactive
22	Ctsh (cathepsin H)	2	51.3	55.4	inactive
23	Ctsh (cathepsin H)	3	78.8	70.8	inactive
24	Ptprr (protein tyrosine phosphatase receptor type R)	1	186	120	active
25	Ptprr (protein tyrosine phosphatase receptor type R)	2	152	108	active
26	Ptprr (protein tyrosine phosphatase receptor type R)	3	75.4	57.5	inactive
27	Atf7 (activating transcription factor 7)	1	72.4	58	inactive
28	Atf7 (activating transcription factor 7)	2	84.6	78.4	inactive
29	Tacr3 (tachykinin receptor 3)	1	84.9	97	inactive
30	Tacr3 (tachykinin receptor 3)	2	66	78.4	inactive
31	Tacr3 (tachykinin receptor 3)	3	13.6	10.6	inactive
32	Eid1 (EP300 interacting inhibitor of differentiation 1)	1	90.6	64.3	inactive
33	Eid1 (EP300 interacting inhibitor of differentiation 1)	2	70.8	66.6	inactive
34	Eid1 (EP300 interacting inhibitor of differentiation 1)	3	94.4	90.4	inactive
35	Jam2 (junction adhesion molecule 2)	1	85	67.5	inactive
36	Jam2 (junction adhesion molecule 2)	2	133	65.7	active
37	Jam2 (junction adhesion molecule 2)	3	91.3	105	inactive
38	Phf20l1 (PHD finger protein 20-like 1)	1	80.2	67	inactive
39	Phf20l1 (PHD finger protein 20-like 1)	2	125	94.3	active
40	Pmm2 (phosphomannomutase 2)	1	149	132	active
41	Pmm2 (phosphomannomutase 2)	2	80.8	73.2	inactive
42	Pmm2 (phosphomannomutase 2)	3	76.7	89.1	inactive
43	Gulp1 (GULP, engulfment adaptor PTB domain containing 1)	1	66	84.7	inactive
44	Gulp1 (GULP, engulfment adaptor PTB domain containing 1)	2	130	126	active
45	Gulp1 (GULP, engulfment adaptor PTB domain containing 1)	3	73.9	103	inactive
46	Atp5f1b (ATP synthase F1 subunit beta)	1	87.1	101	inactive
47	Atp5f1b (ATP synthase F1 subunit beta)	2	66.9	70.6	inactive
48	Atp5f1b (ATP synthase F1 subunit beta)	3	65.1	53.4	inactive
49	Nt5c (5',3'-nucleotidase, cytosolic)	1	61.5	74.4	inactive
50	Nt5c (5',3'-nucleotidase, cytosolic)	2	61.7	60.4	inactive
51	Nt5c (5',3'-nucleotidase, cytosolic)	3	52.4	64.1	inactive

11 entries from above, reformatted.
Ctsh (cathepsin H) #2
- GFP, % of control: 51.3
- viability (ATP), % of control: 55.4
- activity call: inactive

Ctsh (cathepsin H) #3
- GFP, % of control: 78.8
- viability (ATP), % of control: 70.8
- activity call: inactive

Ptprr (protein tyrosine phosphatase receptor type R) #1
- GFP, % of control: 186
- viability (ATP), % of control: 120
- activity call: active

Ptprr (protein tyrosine phosphatase receptor type R) #2
- GFP, % of control: 152
- viability (ATP), % of control: 108
- activity call: active

Ptprr (protein tyrosine phosphatase receptor type R) #3
- GFP, % of control: 75.4
- viability (ATP), % of control: 57.5
- activity call: inactive

Atf7 (activating transcription factor 7) #1
- GFP, % of control: 72.4
- viability (ATP), % of control: 58
- activity call: inactive

Atf7 (activating transcription factor 7) #2
- GFP, % of control: 84.6
- viability (ATP), % of control: 78.4
- activity call: inactive

Tacr3 (tachykinin receptor 3) #1
- GFP, % of control: 84.9
- viability (ATP), % of control: 97
- activity call: inactive

Tacr3 (tachykinin receptor 3) #2
- GFP, % of control: 66
- viability (ATP), % of control: 78.4
- activity call: inactive

Tacr3 (tachykinin receptor 3) #3
- GFP, % of control: 13.6
- viability (ATP), % of control: 10.6
- activity call: inactive

Eid1 (EP300 interacting inhibitor of differentiation 1) #1
- GFP, % of control: 90.6
- viability (ATP), % of control: 64.3
- activity call: inactive

The list goes on.
no.	gene symbol	siRNA no.	GFP, % of control	viability (ATP), % of control	activity call
52	Ropn1l (ropporin 1-like)	1	110	92.3	inactive
53	Ropn1l (ropporin 1-like)	2	84.5	59.7	inactive
54	Ropn1l (ropporin 1-like)	3	43.8	57.2	inactive
55	Tmem254 (transmembrane protein 254)	1	101	110	inactive
56	Tmem254 (transmembrane protein 254)	2	0.141	367	inactive
57	Tmem254 (transmembrane protein 254)	3	164	68.9	active
58	Cda (cytidine deaminase)	1	68.4	85.1	inactive
59	Cda (cytidine deaminase)	2	105	85.2	inactive
60	Cda (cytidine deaminase)	3	75.7	68.2	inactive
61	F2 (coagulation factor II)	1	96.6	101	inactive
62	F2 (coagulation factor II)	2	72.3	73.9	inactive
63	F2 (coagulation factor II)	3	86.3	74.5	inactive
64	Pdcd1 (programmed cell death 1)	1	86.4	68.4	inactive
65	Pdcd1 (programmed cell death 1)	2	63.1	44.4	inactive
66	Pdcd1 (programmed cell death 1)	3	63.6	92.3	inactive
67	Fut1 (fucosyltransferase 1)	1	131	97.2	active
68	Fut1 (fucosyltransferase 1)	2	54	40.3	inactive
69	Fut1 (fucosyltransferase 1)	3	85.5	97.4	inactive
70	Adam11 (a disintegrin and metallopeptidase domain 11)	1	144	106	active
71	Adam11 (a disintegrin and metallopeptidase domain 11)	2	71.9	75.9	inactive
72	Adam11 (a disintegrin and metallopeptidase domain 11)	3	119	94.8	inactive
73	Krt4 (keratin 4)	1	139	115	active
74	Krt4 (keratin 4)	2	50.4	50.8	inactive
75	Xlr5c (X-linked lymphocyte-regulated 5C)	1	86.8	50.9	inactive
76	Xlr5c (X-linked lymphocyte-regulated 5C)	2	56.9	61.4	inactive
77	Xlr5c (X-linked lymphocyte-regulated 5C)	3	165	109	active
78	Slain1 (SLAIN motif family, member 1)	1	54	62.1	inactive
79	Slain1 (SLAIN motif family, member 1)	2	99.9	91.1	inactive
80	Slain1 (SLAIN motif family, member 1)	3	52	48.1	inactive
81	Ferd3l (Fer3 like bHLH transcription factor)	1	78.4	90.8	inactive
82	Ferd3l (Fer3 like bHLH transcription factor)	2	55.9	62.4	inactive
83	Ferd3l (Fer3 like bHLH transcription factor)	3	106	95.1	inactive
84	Stx12 (syntaxin 12)	1	72.1	67.4	inactive
85	Stx12 (syntaxin 12)	2	43.8	45.4	inactive
86	Stx12 (syntaxin 12)	3	95.4	58.8	inactive
87	Ptpn14 (protein tyrosine phosphatase, non-receptor type 14)	1	107	111	inactive
88	Ptpn14 (protein tyrosine phosphatase, non-receptor type 14)	2	115	84.7	inactive
89	Ptpn14 (protein tyrosine phosphatase, non-receptor type 14)	3	90.8	83.5	inactive
90	Tmem11 (transmembrane protein 11)	1	55.6	97.6	inactive
91	Tmem11 (transmembrane protein 11)	2	80.4	77.7	inactive
92	4833439L19Rik (RIKEN cDNA 4833439L19 gene)	1	61.4	74.6	inactive
93	4833439L19Rik (RIKEN cDNA 4833439L19 gene)	2	80.9	72.4	inactive
94	4833439L19Rik (RIKEN cDNA 4833439L19 gene)	3	76.6	69.9	inactive
95	Tmem151a (transmembrane protein 151A)	1	141	88.7	active
96	Tmem151a (transmembrane protein 151A)	2	50.4	64	inactive
97	Tmem151a (transmembrane protein 151A)	3	50.7	31.6	inactive
98	Cdcp3 (CUB domain containing protein 3)	1	60.7	75.3	inactive
99	Cdcp3 (CUB domain containing protein 3)	2	77.3	76.7	inactive
100	Cdcp3 (CUB domain containing protein 3)	3	84.4	84.7	inactive
101	Utp4 (UTP4 small subunit processome component)	1	51	53.6	inactive
102	Utp4 (UTP4 small subunit processome component)	2	147	151	active
103	Utp4 (UTP4 small subunit processome component)	3	64.3	103	inactive
104	Atp5f1a (ATP synthase F1 subunit alpha)	1	42.4	55.2	inactive
105	Atp5f1a (ATP synthase F1 subunit alpha)	2	71.3	89	inactive
106	Atp5f1a (ATP synthase F1 subunit alpha)	3	174	73.8	active
107	Ice1 (interactor of little elongation complex ELL subunit 1)	1	69.8	57.5	inactive
108	Ice1 (interactor of little elongation complex ELL subunit 1)	2	69.1	75.8	inactive
109	Ice1 (interactor of little elongation complex ELL subunit 1)	3	97.9	58.4	inactive
